Numbering of substitutions follows the chain as printed. Names and notes keep the numbering of the source. No constants are given. Whether binding was seen depends on the method and setting. Blank lines part the entries; values can stand above or below the binder they belong to.
What was measured:
[1] = target: BAK V142C/F150C, disulfide form (human) (UniProt Q16611); assay: SEC
[2] = target: BAK A28C/L163C, disulfide form (human) (UniProt Q16611); assay: SEC

- binding [1]: no binding (tested: 20 μM)
B1: BAK V142C/F150C, disulfide form (domain or fragment, UniProt Q16611 16-185)
chain: EPALPSASEEQVAQDTEEVFRSYVFYRHQQEQEAEGVAAPADPEMVTLPLQPSSTMGQVGRQLAIIGDDINRRYDSEFQTMLQHLQPTAENAYEYFTKIATSLFESGINWGRVVALLGFGYRLALHCYQHGLTGCLGQVTRFVVDFMLHHSIARWIAQRGGWVAALNLGN
modifications: disulfide staple between the introduced cysteines 142 and 150

- binding [2]: no binding (tested: 20 μM)
B2: BAK A28C/L163C, disulfide form (domain or fragment, UniProt Q16611 16-185)
chain: B1 chain with A13C, C127V, C135F, L148C
modifications: disulfide staple between the introduced cysteines 28 and 163

Source: doi:10.1101/756874
